Residue numbers refer to the chain shown, from its start. Weaker means in comparison with the reference protein, sequence or condition of that experiment. Tags and fusion partners may be left off the protein sequences shown.
How the values were obtained:
Assay in all cases: EMSA
Conditions in all cases: EMSA: 20 mM HEPES pH 7.6, 10 mM (NH4)2SO4, 1 mM DTT, 0.2% Tween-20, 30 mM KCl, 40 °C 20 min, 2 nM probe; 8% native PAGE in 40 mM Tris, 20 mM boric acid; recombinant protein; protein details: His; label: 5'-32P
[1] = target: T1, Orc1-2 ISM G127D,L128D (Saccharolobus islandicus REY15A) (UniProt F0NF18)
T1 sequence (looked up, limits assumed): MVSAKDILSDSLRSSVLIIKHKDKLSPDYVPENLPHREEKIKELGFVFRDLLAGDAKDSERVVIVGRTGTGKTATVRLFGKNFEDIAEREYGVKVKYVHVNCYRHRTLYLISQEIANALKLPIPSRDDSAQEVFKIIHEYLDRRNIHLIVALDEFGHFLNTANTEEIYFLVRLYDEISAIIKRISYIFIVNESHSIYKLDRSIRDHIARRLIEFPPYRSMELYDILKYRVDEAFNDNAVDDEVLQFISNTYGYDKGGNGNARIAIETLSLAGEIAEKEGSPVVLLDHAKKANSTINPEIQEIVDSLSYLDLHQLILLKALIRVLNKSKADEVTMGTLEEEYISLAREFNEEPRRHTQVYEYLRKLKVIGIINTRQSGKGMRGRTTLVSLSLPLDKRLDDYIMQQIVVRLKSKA

[2] = target: T2, Orc1-2 WA K72A (Saccharolobus islandicus REY15A) (UniProt F0NF18)
T2 sequence (looked up, limits assumed): T1 sequence (looked up, limits assumed) with K72A, D127G, D128L

[3] = target: T3, Orc1-2 wH-m1 R353A,R354A (Saccharolobus islandicus REY15A) (UniProt F0NF18)
T3 sequence (looked up, limits assumed): T1 sequence (looked up, limits assumed) with D127G, D128L, R353A, R354A

[4] = target: T4, Orc1-2 wH-m2 R381A,R383A (Saccharolobus islandicus REY15A) (UniProt F0NF18)
T4 sequence (looked up, limits assumed): T1 sequence (looked up, limits assumed) with D127G, D128L, R381A, R383A

Measured: binding result

CTATAAAGGAAGTTTTAAGTAATTTCGGTATTGTGTGAGTATATTT (double strand) [PupsE]
binds more weakly: all assays above

From PMC9738581, “Dissection of Functional Domains of Orc1-2, the Archaeal Global DNA Damage-Responsive Regulator”
